Measured values published in article PMC3164674.
Construct, isoform or probe ends are uncertain for at least one entry. Where cells or extracts were used, other partners may take part.

Amino acid sequences for entries named in this document (tags omitted). A change or cut given only in a name is not applied to a line headed by its entry.
UniProt P15941: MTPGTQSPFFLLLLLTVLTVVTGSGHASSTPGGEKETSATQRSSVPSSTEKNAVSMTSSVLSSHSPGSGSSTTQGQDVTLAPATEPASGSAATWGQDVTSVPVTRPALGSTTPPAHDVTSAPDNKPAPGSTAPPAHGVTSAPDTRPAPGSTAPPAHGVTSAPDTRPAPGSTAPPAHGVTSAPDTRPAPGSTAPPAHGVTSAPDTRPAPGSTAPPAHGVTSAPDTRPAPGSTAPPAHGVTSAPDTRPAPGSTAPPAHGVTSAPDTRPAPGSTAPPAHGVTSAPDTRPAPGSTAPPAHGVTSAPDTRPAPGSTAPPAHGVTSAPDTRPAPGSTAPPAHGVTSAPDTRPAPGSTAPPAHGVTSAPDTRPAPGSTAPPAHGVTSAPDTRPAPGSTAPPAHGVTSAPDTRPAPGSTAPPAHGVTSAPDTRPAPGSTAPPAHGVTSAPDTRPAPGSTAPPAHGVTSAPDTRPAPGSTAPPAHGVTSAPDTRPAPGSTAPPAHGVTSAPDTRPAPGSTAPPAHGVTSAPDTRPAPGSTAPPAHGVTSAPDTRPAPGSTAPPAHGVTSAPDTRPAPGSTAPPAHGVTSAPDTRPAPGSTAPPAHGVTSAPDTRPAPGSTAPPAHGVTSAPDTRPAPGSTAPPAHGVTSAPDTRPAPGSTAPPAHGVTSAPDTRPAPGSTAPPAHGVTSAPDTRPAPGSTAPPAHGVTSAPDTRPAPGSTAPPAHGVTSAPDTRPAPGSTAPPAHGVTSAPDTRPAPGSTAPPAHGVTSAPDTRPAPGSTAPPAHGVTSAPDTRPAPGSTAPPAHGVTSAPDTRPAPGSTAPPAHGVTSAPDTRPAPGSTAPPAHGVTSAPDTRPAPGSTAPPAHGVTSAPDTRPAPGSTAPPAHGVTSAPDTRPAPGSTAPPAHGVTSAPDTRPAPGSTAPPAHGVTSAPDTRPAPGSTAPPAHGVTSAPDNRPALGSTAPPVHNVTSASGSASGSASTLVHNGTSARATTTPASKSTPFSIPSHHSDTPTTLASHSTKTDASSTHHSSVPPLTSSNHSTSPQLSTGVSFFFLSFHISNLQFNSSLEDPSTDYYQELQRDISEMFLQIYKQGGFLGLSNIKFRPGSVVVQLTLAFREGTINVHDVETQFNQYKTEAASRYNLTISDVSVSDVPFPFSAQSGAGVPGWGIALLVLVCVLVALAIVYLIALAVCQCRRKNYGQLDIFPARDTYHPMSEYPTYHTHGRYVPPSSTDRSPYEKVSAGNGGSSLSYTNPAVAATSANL

Molecular target: MUC1 (mucin 1) on the surface of MCF-7 cells (human (MCF-7 breast cancer cell line)) (UniProt P15941)
Assay: flow cytometry on cells
Details: 300 nM DNA, 5 mM Mg2+, higher on MUC1+ MCF-7 than on MUC1- HepG2; 100 mM NaCl, 5 mM MgCl2, pH 7.2, 300 nM DNA, 30 min; temperature not stated; protein on the cell surface; label: 5'-FITC; single-stranded DNA

“GCAGTTGATCCTTTGGATACCCTGG [MUC1 aptamer S2.2]”: binds.
